Some entries share one result that the patent states for a list of compounds.
Experiment: Lap joint bending peel test
Conditions: underwater; joint prepared in artificial sea water
Protocol: Below are the detailed methods following in sequential order in time: • 1) The aqueous Z-Cat-C10 solution was prepared at 100 mg ml^−1 concentration (very turbid solution at room temperature) (FIG. 10A test-tube on the left). • 2) The solution was centrifuged at 3000 rpm (805×g) for 5 min to expedite the process of liquid-liquid phase separation (FIG. 10A test-tubes in the middle and the right). […]
The catecholic zwitterions were inspired by interfacial proteins (mfp-3 and -5) that function as adhesive primers, but not as bulk adhesives. […] After 12 h ambient drying, the joint prepared in 1 M periodate solution held much higher load, 11 N: Standard three point bending peel strength of the lap joint (cross-sectional area=2.54 cm×1.27 cm) was measured under ambient dry conditions after drying 12 h. […] Shear bonding strength of the lap joint (cross-sectional area=2.54 cm×2.54 cm) was also measured, 1.1 MPa (standard deviation=0.3, n=4)—similar to Dopa-functionalized polypeptide prepared under ambient dry conditions, 0.9 MPa. […]

With `CN(C)CCOP(=O)(O)OCCCc1ccc(O)c(O)c1` [Z-Cat-C10] the “load held by lap joint” value was “up to 0.3 kg”.

— patent US12415939B2, “Nano-adhesive and surface primer compound and use thereof” (The Regents of the University of California, priority 2015, dated 2025)
